Laboratory results: patent US20090143279A1 (priority 2007, published 2009)

System: nuOXPHOS transcripts
Assay type: cell-based, mouse

Cc1cc(/C=C/c2ccc3cc(N(C)C)ccc3[n+]2C)c(C)n1-c1ccccc1 [pyrvinium pamoate, reference compound]
nucOXPHOS Z: −2.08
